Reference: publication PMC7102962
Results are given in words; binding and its absence hold for the method and conditions named. Binding seen in cells or lysates may run through a third protein. Some entries that bind do so weakly or less than the wild type. For some of these results: Tags and fused reporters may be left off the sequences shown.

The chains behind the UniProt entries cited, without tags or fusion partners.
UniProt P70338: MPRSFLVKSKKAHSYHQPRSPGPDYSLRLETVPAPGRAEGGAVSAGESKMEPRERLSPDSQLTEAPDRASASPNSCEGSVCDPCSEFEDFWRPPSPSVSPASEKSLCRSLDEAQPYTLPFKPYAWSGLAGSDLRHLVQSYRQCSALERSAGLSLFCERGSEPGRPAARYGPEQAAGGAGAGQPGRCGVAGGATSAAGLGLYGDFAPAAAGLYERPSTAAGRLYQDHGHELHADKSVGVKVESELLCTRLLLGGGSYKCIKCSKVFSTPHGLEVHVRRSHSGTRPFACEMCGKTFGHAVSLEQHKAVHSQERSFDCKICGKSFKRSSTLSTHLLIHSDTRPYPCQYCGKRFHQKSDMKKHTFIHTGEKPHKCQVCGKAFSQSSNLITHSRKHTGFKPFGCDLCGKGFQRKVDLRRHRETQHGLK
UniProt P23772: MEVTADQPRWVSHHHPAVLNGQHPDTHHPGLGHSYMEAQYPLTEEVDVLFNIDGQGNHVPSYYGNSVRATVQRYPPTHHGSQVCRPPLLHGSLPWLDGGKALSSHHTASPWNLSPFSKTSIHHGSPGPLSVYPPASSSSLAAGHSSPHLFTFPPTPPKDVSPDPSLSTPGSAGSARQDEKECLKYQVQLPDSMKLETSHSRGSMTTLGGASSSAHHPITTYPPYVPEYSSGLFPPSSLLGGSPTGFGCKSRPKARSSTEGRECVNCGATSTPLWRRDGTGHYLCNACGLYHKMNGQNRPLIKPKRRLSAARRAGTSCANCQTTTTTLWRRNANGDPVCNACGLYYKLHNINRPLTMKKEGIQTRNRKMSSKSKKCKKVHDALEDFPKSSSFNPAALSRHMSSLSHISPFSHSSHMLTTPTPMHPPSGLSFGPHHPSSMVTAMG

What was measured:
[1] = target: T1, Atoh1 (mouse (endogenous in cochlea)) (UniProt P48985); assay: co-IP; nuclear extracts of mouse embryonic cochleae (E14.5, E15.5 or E17.5), endogenous proteins; IP buffer 20 mM Tris-HCl pH 8.0, 150 mM NaCl, 0.1% NP-40, 10% glycerol; ~1 ug primary antibody overnight at 4°C, protein A/G beads; western blot
T1 sequence: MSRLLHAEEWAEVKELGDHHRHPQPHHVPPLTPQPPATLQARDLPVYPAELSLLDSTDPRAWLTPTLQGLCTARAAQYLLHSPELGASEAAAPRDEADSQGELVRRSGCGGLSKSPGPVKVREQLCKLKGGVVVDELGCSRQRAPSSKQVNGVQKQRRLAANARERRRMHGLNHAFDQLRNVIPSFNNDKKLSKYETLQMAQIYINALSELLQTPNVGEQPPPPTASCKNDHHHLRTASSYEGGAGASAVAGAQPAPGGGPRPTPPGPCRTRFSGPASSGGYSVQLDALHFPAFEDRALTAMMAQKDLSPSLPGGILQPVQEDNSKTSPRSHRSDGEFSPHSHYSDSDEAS

[2] = target: T2, CTCF (mouse (endogenous in cochlea)) (UniProt Q61164); assay: as above
T2 sequence: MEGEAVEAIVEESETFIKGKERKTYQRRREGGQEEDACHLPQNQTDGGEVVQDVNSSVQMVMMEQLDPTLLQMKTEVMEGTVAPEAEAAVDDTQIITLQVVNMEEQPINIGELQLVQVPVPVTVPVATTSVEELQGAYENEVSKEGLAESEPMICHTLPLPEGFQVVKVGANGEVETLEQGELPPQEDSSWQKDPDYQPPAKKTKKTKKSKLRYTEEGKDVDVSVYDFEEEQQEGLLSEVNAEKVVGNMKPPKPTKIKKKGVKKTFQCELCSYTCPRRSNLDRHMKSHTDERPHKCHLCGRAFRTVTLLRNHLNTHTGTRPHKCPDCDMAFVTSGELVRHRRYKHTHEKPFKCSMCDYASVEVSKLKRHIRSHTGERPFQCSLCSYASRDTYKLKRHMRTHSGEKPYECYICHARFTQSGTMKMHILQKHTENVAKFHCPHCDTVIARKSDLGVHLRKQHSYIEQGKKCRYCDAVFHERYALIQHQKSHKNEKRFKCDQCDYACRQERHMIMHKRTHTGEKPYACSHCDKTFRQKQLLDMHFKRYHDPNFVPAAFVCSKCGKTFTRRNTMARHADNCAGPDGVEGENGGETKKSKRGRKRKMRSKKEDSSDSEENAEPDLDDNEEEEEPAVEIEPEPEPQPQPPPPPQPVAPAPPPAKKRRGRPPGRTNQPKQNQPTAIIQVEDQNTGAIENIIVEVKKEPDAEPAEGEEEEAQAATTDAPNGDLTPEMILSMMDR

[3] = target: Gfi1 (mouse (endogenous in cochlea)) (UniProt P70338); assay: as above
[4] = target: T3, Pbx1 (mouse (endogenous in cochlea)) (UniProt P41778); assay: as above
T3 sequence: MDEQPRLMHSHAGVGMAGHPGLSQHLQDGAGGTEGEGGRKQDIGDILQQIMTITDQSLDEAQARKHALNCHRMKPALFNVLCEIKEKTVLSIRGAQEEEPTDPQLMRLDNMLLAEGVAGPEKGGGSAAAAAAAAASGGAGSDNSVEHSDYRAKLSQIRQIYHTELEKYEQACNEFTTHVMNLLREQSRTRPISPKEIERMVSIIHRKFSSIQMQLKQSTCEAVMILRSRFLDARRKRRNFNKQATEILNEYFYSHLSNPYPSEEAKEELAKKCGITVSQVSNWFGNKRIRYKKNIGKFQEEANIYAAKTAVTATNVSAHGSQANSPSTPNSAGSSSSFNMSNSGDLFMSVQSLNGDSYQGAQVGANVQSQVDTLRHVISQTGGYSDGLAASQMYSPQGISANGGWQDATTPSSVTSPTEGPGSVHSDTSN

[5] = target: T4, Pou4f3 (mouse (endogenous in cochlea)) (UniProt Q63955); assay: as above
T4 sequence: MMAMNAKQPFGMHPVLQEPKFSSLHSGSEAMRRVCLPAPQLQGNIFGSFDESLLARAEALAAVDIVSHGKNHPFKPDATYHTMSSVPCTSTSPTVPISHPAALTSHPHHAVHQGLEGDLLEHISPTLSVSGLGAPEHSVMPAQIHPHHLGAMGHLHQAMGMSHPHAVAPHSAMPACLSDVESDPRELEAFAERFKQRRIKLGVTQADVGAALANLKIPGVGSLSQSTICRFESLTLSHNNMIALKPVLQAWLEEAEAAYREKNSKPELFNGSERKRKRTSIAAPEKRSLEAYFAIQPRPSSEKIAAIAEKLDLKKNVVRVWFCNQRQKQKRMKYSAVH

[6] = target: T5, Rfx1 (mouse (endogenous in cochlea)) (UniProt P48377); assay: as above
T5 sequence: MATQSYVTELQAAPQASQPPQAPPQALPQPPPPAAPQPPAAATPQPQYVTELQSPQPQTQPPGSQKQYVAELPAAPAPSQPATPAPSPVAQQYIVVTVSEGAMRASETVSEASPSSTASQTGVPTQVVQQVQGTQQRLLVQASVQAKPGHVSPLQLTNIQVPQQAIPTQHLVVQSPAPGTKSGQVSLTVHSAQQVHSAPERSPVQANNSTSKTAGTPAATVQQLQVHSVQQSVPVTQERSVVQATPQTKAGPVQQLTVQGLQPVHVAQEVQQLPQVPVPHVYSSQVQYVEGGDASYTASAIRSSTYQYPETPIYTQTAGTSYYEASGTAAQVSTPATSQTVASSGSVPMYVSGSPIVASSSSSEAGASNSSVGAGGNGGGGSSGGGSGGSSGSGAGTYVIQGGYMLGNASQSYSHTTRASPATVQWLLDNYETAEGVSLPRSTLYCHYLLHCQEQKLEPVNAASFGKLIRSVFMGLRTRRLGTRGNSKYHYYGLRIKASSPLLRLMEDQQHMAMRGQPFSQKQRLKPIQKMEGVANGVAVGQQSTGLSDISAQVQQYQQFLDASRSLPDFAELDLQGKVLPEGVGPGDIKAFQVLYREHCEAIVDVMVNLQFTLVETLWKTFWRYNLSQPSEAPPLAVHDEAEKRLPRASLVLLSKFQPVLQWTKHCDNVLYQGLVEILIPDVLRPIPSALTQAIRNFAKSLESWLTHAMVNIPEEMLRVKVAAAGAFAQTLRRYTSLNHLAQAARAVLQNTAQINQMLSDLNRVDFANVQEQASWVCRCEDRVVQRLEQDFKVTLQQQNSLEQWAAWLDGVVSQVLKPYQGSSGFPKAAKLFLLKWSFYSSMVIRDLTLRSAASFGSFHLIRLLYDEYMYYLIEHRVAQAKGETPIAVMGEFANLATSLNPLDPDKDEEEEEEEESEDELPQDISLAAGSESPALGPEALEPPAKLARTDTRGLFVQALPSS

[7] = target: T6, Rfx3 (mouse (endogenous in cochlea)) (UniProt P48381); assay: as above
T6 sequence: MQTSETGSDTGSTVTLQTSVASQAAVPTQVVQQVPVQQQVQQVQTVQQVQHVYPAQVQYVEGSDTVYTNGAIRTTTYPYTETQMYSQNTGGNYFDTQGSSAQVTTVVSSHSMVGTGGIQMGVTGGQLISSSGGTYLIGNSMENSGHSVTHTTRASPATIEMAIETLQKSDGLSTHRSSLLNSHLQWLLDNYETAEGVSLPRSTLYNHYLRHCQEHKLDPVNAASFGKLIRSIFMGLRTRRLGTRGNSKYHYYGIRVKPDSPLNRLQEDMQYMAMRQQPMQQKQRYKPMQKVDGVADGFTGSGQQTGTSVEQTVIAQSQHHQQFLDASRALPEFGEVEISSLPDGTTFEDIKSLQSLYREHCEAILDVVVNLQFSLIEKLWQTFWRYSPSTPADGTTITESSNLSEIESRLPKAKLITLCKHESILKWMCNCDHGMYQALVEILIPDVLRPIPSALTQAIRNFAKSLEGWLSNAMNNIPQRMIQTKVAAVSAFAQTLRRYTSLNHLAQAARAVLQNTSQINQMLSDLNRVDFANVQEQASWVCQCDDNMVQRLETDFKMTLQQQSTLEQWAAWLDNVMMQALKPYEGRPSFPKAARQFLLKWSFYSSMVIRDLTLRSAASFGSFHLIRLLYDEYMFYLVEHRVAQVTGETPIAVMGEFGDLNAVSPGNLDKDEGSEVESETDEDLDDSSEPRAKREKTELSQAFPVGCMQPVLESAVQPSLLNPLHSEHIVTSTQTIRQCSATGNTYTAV

[8] = target: Flag-Gata3 (UniProt P23772); assay: co-IP; nuclear extracts of 293 cells cotransfected with His-Six1 and an HA- or Flag-tagged partner; anti-HA or anti-Flag used to precipitate the tagged partner; IP buffer 20 mM Tris-HCl pH 8.0, 150 mM NaCl, 0.1% NP-40, 10% glycerol; western blot
[9] = target: Flag-Gfi1 (UniProt P70338); assay: as above
[10] = target: T7, Flag-Pbx1 (UniProt P41778); assay: as above
T7 sequence: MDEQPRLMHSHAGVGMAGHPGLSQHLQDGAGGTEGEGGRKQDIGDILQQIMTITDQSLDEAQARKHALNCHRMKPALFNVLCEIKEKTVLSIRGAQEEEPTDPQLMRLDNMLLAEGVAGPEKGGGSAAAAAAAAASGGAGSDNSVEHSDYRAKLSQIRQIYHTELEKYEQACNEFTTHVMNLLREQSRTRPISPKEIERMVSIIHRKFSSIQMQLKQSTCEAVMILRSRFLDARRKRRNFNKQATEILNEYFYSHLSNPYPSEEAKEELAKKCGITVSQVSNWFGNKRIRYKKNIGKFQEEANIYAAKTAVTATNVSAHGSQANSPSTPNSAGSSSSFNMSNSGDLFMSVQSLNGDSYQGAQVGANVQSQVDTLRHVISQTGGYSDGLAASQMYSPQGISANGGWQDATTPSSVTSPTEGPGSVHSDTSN

[11] = target: T8, Flag-Pou4f3 (UniProt Q63955); assay: as above
T8 sequence: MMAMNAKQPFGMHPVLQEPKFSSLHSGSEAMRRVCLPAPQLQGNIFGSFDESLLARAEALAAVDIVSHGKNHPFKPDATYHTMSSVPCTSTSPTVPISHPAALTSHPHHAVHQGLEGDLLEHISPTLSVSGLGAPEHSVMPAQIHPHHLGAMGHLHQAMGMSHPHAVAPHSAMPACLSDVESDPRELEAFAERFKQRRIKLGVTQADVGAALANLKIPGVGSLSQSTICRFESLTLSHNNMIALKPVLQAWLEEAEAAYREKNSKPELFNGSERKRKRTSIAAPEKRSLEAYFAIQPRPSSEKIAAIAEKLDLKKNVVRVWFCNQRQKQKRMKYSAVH

[12] = target: T9, Flag-Rfx3 (UniProt P48381); assay: as above
T9 sequence: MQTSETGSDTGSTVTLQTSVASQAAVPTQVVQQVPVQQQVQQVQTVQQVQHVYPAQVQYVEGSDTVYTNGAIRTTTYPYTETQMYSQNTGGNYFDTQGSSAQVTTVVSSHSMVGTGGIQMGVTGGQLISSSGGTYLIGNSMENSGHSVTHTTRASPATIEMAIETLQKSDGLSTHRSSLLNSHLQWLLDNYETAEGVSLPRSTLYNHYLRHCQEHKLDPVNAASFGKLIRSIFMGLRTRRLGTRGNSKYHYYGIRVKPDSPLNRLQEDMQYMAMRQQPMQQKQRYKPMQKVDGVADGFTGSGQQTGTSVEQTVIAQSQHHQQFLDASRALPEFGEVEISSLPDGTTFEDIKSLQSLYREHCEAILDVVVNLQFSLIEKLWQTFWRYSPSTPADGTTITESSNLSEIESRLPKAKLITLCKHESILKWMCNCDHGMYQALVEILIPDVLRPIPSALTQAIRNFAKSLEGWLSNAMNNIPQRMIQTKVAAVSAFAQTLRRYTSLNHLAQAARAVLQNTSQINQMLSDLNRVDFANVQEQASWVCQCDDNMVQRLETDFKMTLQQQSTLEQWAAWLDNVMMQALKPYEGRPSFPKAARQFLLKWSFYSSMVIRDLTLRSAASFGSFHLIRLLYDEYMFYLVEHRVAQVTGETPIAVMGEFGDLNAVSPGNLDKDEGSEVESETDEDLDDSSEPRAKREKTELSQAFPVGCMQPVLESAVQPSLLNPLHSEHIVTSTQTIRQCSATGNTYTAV

[13] = target: T10, HA-Atoh1 (UniProt P48985); assay: as above
T10 sequence: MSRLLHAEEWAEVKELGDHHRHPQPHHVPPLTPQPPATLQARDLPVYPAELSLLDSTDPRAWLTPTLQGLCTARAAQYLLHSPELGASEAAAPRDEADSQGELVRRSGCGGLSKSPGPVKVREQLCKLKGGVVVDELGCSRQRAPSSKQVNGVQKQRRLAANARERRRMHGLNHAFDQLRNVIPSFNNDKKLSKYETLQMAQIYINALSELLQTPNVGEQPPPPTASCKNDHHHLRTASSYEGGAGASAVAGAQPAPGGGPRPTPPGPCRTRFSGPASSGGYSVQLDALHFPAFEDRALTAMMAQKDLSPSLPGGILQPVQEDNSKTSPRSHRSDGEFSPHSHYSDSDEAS

Measured: binding

B1: Six1 (protein, UniProt Q62231 1-284)
chain: MSMLPSFGFTQEQVACVCEVLQQGGNLERLGRFLWSLPACDHLHKNESVLKAKAVVAFHRGNFRELYKILESHQFSPHNHPKLQQLWLKAHYVEAEKLRGRPLGAVGKYRVRRKFPLPRTIWDGEETSYCFKEKSRGVLREWYAHNPYPSPREKRELAEATGLTTTQVSNWFKNRRQRDRAAEAKERENTENNNSSSNKQNQLSPLEGGKPLMSSSEEEFSPPQSPDQNSVLLLQSNMGHARSSNYSLPGLTASQPSHGLQAHQHQLQDSLLGPLTSSLVDLGS
binds: [1] | [2] | [3] | [4] | [5] | [6] | [7]

B2: His-Six1 (protein, UniProt Q62231 1-284)
chain: MSMLPSFGFTQEQVACVCEVLQQGGNLERLGRFLWSLPACDHLHKNESVLKAKAVVAFHRGNFRELYKILESHQFSPHNHPKLQQLWLKAHYVEAEKLRGRPLGAVGKYRVRRKFPLPRTIWDGEETSYCFKEKSRGVLREWYAHNPYPSPREKRELAEATGLTTTQVSNWFKNRRQRDRAAEAKERENTENNNSSSNKQNQLSPLEGGKPLMSSSEEEFSPPQSPDQNSVLLLQSNMGHARSSNYSLPGLTASQPSHGLQAHQHQLQDSLLGPLTSSLVDLGS
binds: [8] | [9] | [10] | [11] | [12] | [13]
